This is one part of the list.

The assay concerns T1, CTL2-GFP (C. trachomatis L2/434/Bu, GFP-expressing).
T1 construct: L2/434/Bu, GFP-expressing
The arrangement: species or system HeLa; Intracellular C. trachomatis growth in HeLa cells, bulk GFP fluorescence relative to DMSO. As to conditions: bulk GFP, single well; 28.5 h, 10 µM; inhibitor.
With `O=C(NCCCO)C1CCCN(S(=O)(=O)c2ccc3ccccc3c2)C1` (stereo not shown) [CBK270141], the “% of control remaining” value amounted to 154.836%. Consider `CCOCCCNC(=O)c1cnn2c(C)c(Cc3cccc(OC)c3)c(C)nc12` [CBK162056], for which the “% of control remaining” value is 127.573%. As for `O=C1COc2ccccc2C/C=C/CC2(CCN(C(=O)c3cncc(O)c3)CC2)C(=O)NCCN1` [CBK291989], the “% of control remaining” value is on record as 161.244%. Take `CCCc1cc(C(=O)NC2(CN3CCCC3)CCCCC2)[nH]n1` [CBK282464]: the “% of control remaining” value is listed as 137.049%.

For the compound `NC(=O)C1(Cc2ccc(-c3ccccc3)cc2)CCN(C(=O)Cc2ccccc2)CC1` [CBK285771], the “% of control remaining” value is 79.6177%. As for `COc1cccc(C(NC(=O)c2cccc(Cn3ccnc3C)c2)c2ccccc2)c1` (stereo not shown) [CBK285620], the “% of control remaining” value was 88.9328%. With `O=C(c1cc(F)c(F)cc1F)N1CCC2(CCCN(CCN3CCOCC3)C2)C1` (stereo not shown) [CBK132015], the “% of control remaining” value is 117.447%. The figure for `O=C(CO)N1CC2(CCN(Cc3cccc4cccnc34)CC2)c2ccccc21` [CBK137004] is 80.0776%.

In the case of `COc1ncc(-c2cncc(N3CCN(c4ccccc4C#N)CC3)n2)c(OC)n1` [CBK037872], the “% of control remaining” value came to 114.993%. The figure for `NNC(=O)CCc1nc2cc(O)ccc2[nH]1` [CBK263633] is 118.963%; for `Cc1nc(CNC(=O)NC2CCCN(c3ncccn3)C2)cs1` (stereo not shown) [CBK305640] it is 101.869%. The figure for `CCOC(=O)c1[nH]c2ccccc2c1NC(=O)c1ccc(OC(F)(F)F)cc1` [CBK160157] is 118.144%; for `c1ccc(-c2cc(CC3(NCc4cc5ccccc5o4)COC3)no2)nc1` [CBK289239] it is 133.664%. Regarding `Clc1ccc(COc2nccnc2N2CCN(Cc3ccc4c(c3)OCO4)CC2)cc1Cl` [CBK083078T], the “% of control remaining” value is on record as 87.9479%.

As for `Cc1nc2c(c(=O)[nH]1)CN(CC1CCCCC1)CC2` [CBK283947], the “% of control remaining” value was 114.142%. Consider `COc1ncc(-c2nccnc2NCCc2ccncc2)c(OC)n1` [CBK038074], for which the “% of control remaining” value came out at 151.496%. The figure for `COc1ccc(Cc2c(C)nc3c(C(=O)NCCSC)cnn3c2C)cc1` [CBK162191] is 113.671%; for `CCNS(=O)(=O)c1ccc(NC(=O)Nc2cc(C)ccc2OC)cc1` [CBK266850] it is 107.248%; for `N#Cc1cccnc1N1CCC(NC(=O)Cn2cccnc2=O)CC1` [CBK307275] it is 122.995%. The figure for `CN(C)CCCNC(=O)c1cc(-c2ccc(Cl)cc2)on1` [CBK116557] is 147.843%; for `Cc1ccc(S(=O)(=O)CC(=O)Nc2ncccn2)cc1` [CBK269800] it is 130.546%; for `N#Cc1ccc2nc([C@H]3CCN(C(=O)c4ccccc4)C3)[nH]c2c1` [CBK289379] it is 127.975%.

For `CCNC(=O)N1C[C@@H]2OCC(=O)N(Cc3ccccc3)[C@@H]2C1` [CBK289679], the “% of control remaining” value was 144.488%. Take `CCN(CC)C(=O)CN1CCN(c2nccnc2OCc2cccnc2)CC1` [CBK083140]: the “% of control remaining” value is listed as 100.921%.

On to `CC(NC(=O)c1ccc(F)cc1Cl)c1ccccc1` (stereo not shown) [CBK270317], for which the “% of control remaining” value was determined as 117.007%.

Regarding `Cc1c(NC(=S)NCCCN2CCOCC2)c(=O)n(-c2ccccc2)n1C` [CBK008032], the “% of control remaining” value came out at 133.536%. The figure for `CCOC(=O)N1CCC(NC(=O)N2CCN(c3ccc(F)cc3)CC2)CC1` [CBK156429] is 98.0239%; for `CC(SC1CCc2ccccc2NC1=O)C(=O)O` (stereo not shown) [CBK286652] it is 131.677%.

For `O=C1NC[C@@H](Cc2ccccc2)NC(=O)C2(C/C=C/COc3ccccc31)CCN(C(=O)CN1CCCC1)CC2` [CBK292184], the “% of control remaining” value is 111.596%.

For the compound `Cc1nc(C)c(C(=O)NCC(C)(C)N2CCCCC2)o1` [CBK281866], the “% of control remaining” value turned out to be 103.668%. For `O=C1N[C@@H]2CCN(C(=O)COc3cccnc3)C[C@@H]2CCCCCOc2ccccc21` [CBK292037], the “% of control remaining” value stood at 138.776%. The figure for `Cc1cc(S(=O)(=O)Nc2cccc(C(=O)O)c2)c(C)c(S(=O)(=O)c2ccccc2)c1` [CBK263227] is 121.981%; for `CN(C)c1cccc(COc2cncc(N3CCNCC3)n2)c1` [CBK200004] it is 85.9799%; for `CNC(=O)C1(Cc2cccc(-c3cccs3)c2)CCN(C(=O)CCc2ccccc2)CC1` [CBK285913] it is 115.119%. `CCCc1cnc(N2CCN(CC(=O)Nc3ccc(C(C)=O)cc3)CC2)nc1` [CBK086194]: the “% of control remaining” value is given as 134.697%. Consider `COC(=O)C(C)CN1CC2CCC(CC2)C1` (stereo not shown) [CBK022785C], for which the “% of control remaining” value is listed as 132.629%. The figure for `O=c1[nH]c(NCCCO)nc2sc3c(c12)CCCC3` [CBK025611] is 109.73%; for `Cc1ccc2nsnc2c1NC(=O)CN1CCC(C)CC1` [CBK269568] it is 148.228%; for `Cc1ccc(S(=O)(=O)N(CC(=O)Nc2ccccc2-c2ccccc2)c2cccc(C)c2)cc1` [CBK265988] it is 100%.

Take `O=C(Cn1cnc2c(oc3ccccc32)c1=O)Nc1ccc2c(c1)OCO2` [CBK287557]: the “% of control remaining” value was 103.951%. For `C1=CCC(CN(CCCn2ccnc2)CC2CCOC2)CC1` (stereo not shown) [CBK283217], the “% of control remaining” value came out at 135.028%.

Consider `Cc1nnc(SCc2cc(=O)nc(NC(=N)Nc3cccc(Cl)c3)[nH]2)s1` [CBK266318], for which the “% of control remaining” value is 136.459%. Regarding `Cc1ccc(C(CNCc2cn(C)nc2-c2cccnc2)N(C)C)cc1` (stereo not shown) [CBK305343], the “% of control remaining” value came to 132.002%. Turning to `Cc1cc(COc2ccnc(N3CCCN(CC(N)=O)CC3)n2)no1` [CBK084036], the “% of control remaining” value came out at 121.465%. Regarding `N#CCCCN1CCC(Oc2nccnc2OCc2ccc(-c3ccccc3)cc2)CC1` [CBK161566], the “% of control remaining” value worked out at 95.3679%. For `Cc1cccc(-c2ncc(C(=O)NCc3csc4ccc(Cl)cc34)cc2-c2ccncc2)c1` [CBK036770], the “% of control remaining” value worked out at 118.98%.

For the compound `CC(=O)Nc1ccc(Nc2cc(-c3ccco3)ncn2)cc1` [CBK090719], the “% of control remaining” value is listed as 198.015%. Regarding `Cc1cc(C)c2nc(NC(=O)c3ccc(=O)n(CC(=O)NC4CCCCC4)c3)sc2c1` [CBK285980], the “% of control remaining” value came out at 108.356%.

With `CC(=O)Nc1ccc(-c2ccc(C(=O)NCC3COc4ccccc4O3)cn2)cc1` (stereo not shown) [CBK158832], the “% of control remaining” value stood at 101.384%. For the compound `Cn1nc(-c2cccs2)cc1[C@H]1CN2CC[C@H]1C[C@@H]2CNC(=O)c1ccco1` [CBK289100], the “% of control remaining” value is on record as 124.347%. With `S=c1[nH]cnc2sc3c(c12)CCCC3` [CBK027787], the “% of control remaining” value is listed as 129.622%. The figure for `Cc1cc(NC(=O)CN2CCCC2CC(O)c2ccccc2)no1` (stereo not shown) [CBK305139] is 67.0817%; for `CSCCCNC(=O)N1CCN(CCc2ccccc2)CC1` [CBK158900] it is 110.719%. With `c1ccc(-n2nnnc2CSc2nc3ccccc3s2)cc1` [CBK266372], the “% of control remaining” value is reported as 83.9436%.

Consider `CC(=O)Nc1cccc(CNC(=O)c2cccnc2OCC(F)(F)F)c1` [CBK304557], for which the “% of control remaining” value amounted to 152.096%. On to `CC1CN(C(=O)c2ncoc2-c2ccc(F)cc2)CC(C)O1` (stereo not shown) [CBK282379], for which the “% of control remaining” value turned out to be 133.079%. With `Cc1nn(C)c(C)c1CN(C)C(=O)CCCC(=O)O` [CBK286879], the “% of control remaining” value came to 132.642%. As to `NNC(=O)CNC(c1cc(Br)ccc1N)c1ccccc1Cl` (stereo not shown) [CBK262977], the “% of control remaining” value is listed as 115.419%. `COc1ccc(N2CCN(c3cncc(-c4cccnc4)n3)CC2)cc1OC` [CBK066086]: the “% of control remaining” value is reported as 88.0169%. Regarding `CCOc1ccc(S(=O)(=O)N2CCC(C(=O)N3CCN(C)CC3)CC2)cc1` [CBK270075], the “% of control remaining” value turned out to be 119.425%.

Turning to `c1ccc2[nH]c(CCc3nc4ccccc4[nH]3)nc2c1` [CBK261807], the “% of control remaining” value is 87.2692%. `CCN(CC)C(=O)c1cccc(OC)c1` [CBK012105]: the “% of control remaining” value is reported as 108.763%. Turning to `O=C1CC2(CCCC2)C(=O)N1c1ccc(S(=O)(=O)NC2CCN(Cc3ccccc3)CC2)cc1Cl` [CBK074650], the “% of control remaining” value was determined as 102.455%. `C=Cn1ncc(CN(CCN(C)C)Cc2ccc(C)o2)c1C` [CBK283236]: the “% of control remaining” value is recorded as 82.3396%. Turning to `O=C(Nc1ccncc1)c1c(O)n(Cc2ccccc2)c2ccccc2c1=O` [CBK291222], the “% of control remaining” value came to 132.486%. For the compound `CCOC(=O)N1CCC(NS(=O)(=O)c2ccc(NC(C)=O)cc2)CC1` [CBK045470], the “% of control remaining” value is reported as 88.0413%. `Cc1cccc(NS(=O)(=O)c2ccc(I)cc2)n1` [CBK268818]: the “% of control remaining” value is given as 130.712%.

Regarding `CC1=NN(c2ccc(S(N)(=O)=O)cc2)C(=O)/C1=C\c1ccc(-c2cc([N+](=O)[O-])ccc2C)o1` [CBK263460], the “% of control remaining” value worked out at 119.077%. Take `Cc1ccc(C(=O)NC2CCCC2)cn1` [CBK200117]: the “% of control remaining” value is on record as 115.581%.

For `O=C(CN1CC(O)CC1c1cccc(C(F)(F)F)c1)NCc1cccs1` (stereo not shown) [CBK305253], the “% of control remaining” value amounted to 93.7072%.

For the compound `Cc1ncsc1CCOC(=O)N1C[C@@H](C)O[C@@H](C)C1` [CBK200418], the “% of control remaining” value was determined as 111.942%. Take `O=C(Cc1ccccn1)N1CCN(Cc2ccccc2)CC1` [CBK200174]: the “% of control remaining” value is listed as 123.6%. To `Cc1c(CN2CCCCC2CCN2CCCC2=O)oc2ccccc12` (stereo not shown) [CBK282181] belongs 129.593%. As to `Clc1ccc(-c2ccc(CNCCCN3CCOCC3)o2)cc1` [CBK269562C], the “% of control remaining” value is recorded as 93.3152%. To `COc1ccc(-n2ncc3c2CC(C)(C)CC3N)cc1` (stereo not shown) [CBK306789] belongs 138.956%; to `O=C(c1c[nH]c(=O)c(Cl)c1)N1CCCCC1CN1CCOCC1` (stereo not shown) [CBK304416], 81.5188%; to `COc1cc(NC(=O)COc2cccc3ccccc23)c(C(=O)O)cc1OC` [CBK268253], 165.655%.

Regarding `CN1CCC(=NNC(=O)c2ccc(CN3CCOCC3)cc2)CC1` [CBK262749], the “% of control remaining” value turned out to be 113.615%. Turning to `C[C@@H](Cn1nc2c(cc1=O)CCCC2)NC(=O)c1ccccc1F` [CBK284560], the “% of control remaining” value was 135.543%.

Source of the values: publication PMC12040169 (PLOS Biology, 2025).
